The supplement of paper PMC8728848
Some of the results follow.

Legend:
Assay in all cases: glycan array binding signal (z-score within array); higher = stronger binding
Settings in all cases: glycan notation: IUPAC condensed, linker removed
[1] = target: Fuc(a1-2)Gal(b1-4)GlcNAc(b1-3)Gal(b1-4)GlcNAc(b1-2)Man(a1-3)[Fuc(a1-2)Gal(b1-4)GlcNAc(b1-3)Gal(b1-4)GlcNAc(b1-2)Man(a1-6)]Man(b1-4)GlcNAc(b1-4)GlcNAc
Outline: (§1)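 Glycan array data came from 3228 arrays in the Consortium for Functional Glycomics database, and only arrays with an available protein sequence were kept. Glycan names were put into IUPAC-condensed notation, and columns mapping to the same glycan were averaged. The binding signal is a within-array Z-score, averaged across arrays of one protein sequence run at different concentrations or buffers and across linkers. A negative Z-score can be read as non-binding.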

[2] = target: Fuc(a1-2)Gal(b1-4)GlcNAc(b1-3)Gal(b1-4)GlcNAc(b1-3)Gal(b1-4)GlcNAc
Outline: as §1

[3] = target: Fuc(a1-2)Gal(b1-4)GlcNAc(b1-3)GalNAc
Outline: as §1

[4] = target: Fuc(a1-2)Gal(b1-4)GlcNAc(b1-3)[Fuc(a1-2)Gal(b1-4)GlcNAc(b1-6)]GalNAc
Outline: as §1

[5] = target: Fuc(a1-2)Gal(b1-4)GlcNAc(b1-3)[Fuc(a1-3)[Gal(b1-4)]GlcNAc(b1-6)]Gal(b1-4)Glc
Outline: as §1

[6] = target: Fuc(a1-2)Gal(b1-4)GlcNAc(b1-6)GalNAc
Outline: as §1

[7] = target: Fuc(a1-2)Gal(b1-4)GlcNAc6S
Outline: as §1

[8] = target: Fuc(a1-2)Gal(b1-4)[Fuc(a1-3)]GlcNAc
Outline: as §1

[9] = target: Fuc(a1-2)Gal(b1-4)[Fuc(a1-3)]GlcNAc(b1-2)Man(a1-3)[Fuc(a1-2)Gal(b1-4)[Fuc(a1-3)]GlcNAc(b1-2)Man(a1-6)]Man(b1-4)GlcNAc(b1-4)[Fuc(a1-6)]GlcNAc
Outline: as §1

[10] = target: Fuc(a1-2)Gal(b1-4)[Fuc(a1-3)]GlcNAc(b1-2)[Fuc(a1-2)Gal(b1-4)[Fuc(a1-3)]GlcNAc(b1-4)]Man(a1-3)[Fuc(a1-2)Gal(b1-4)[Fuc(a1-3)]GlcNAc(b1-2)Man(a1-6)]Man(b1-4)GlcNAc(b1-4)GlcNAc
Outline: as §1

[11] = target: Fuc(a1-2)Gal(b1-4)[Fuc(a1-3)]GlcNAc(b1-3)Gal(b1-4)[Fuc(a1-3)]GlcNAc
Outline: as §1

[12] = target: Fuc(a1-2)Gal(b1-4)[Fuc(a1-3)]GlcNAc(b1-3)Gal(b1-4)[Fuc(a1-3)]GlcNAc(b1-3)Gal(b1-4)[Fuc(a1-3)]GlcNAc
Outline: as §1

[13] = target: Fuc(a1-2)Gal(b1-4)[Fuc(a1-3)]GlcNAc(b1-3)GalNAc
Outline: as §1

[14] = target: Fuc(a1-2)Gal(b1-4)[Fuc(a1-3)]GlcNAc(b1-3)[Neu5Ac(a2-6)Gal(b1-4)GlcNAc(b1-6)]Gal(b1-4)Glc
Outline: as §1

[15] = target: Fuc(a1-2)Gal3S(b1-4)GlcNAc
Outline: as §1

[16] = target: Fuc(a1-2)Gal6S(b1-3)GlcNAc
Outline: as §1

[17] = target: Fuc(a1-2)Gal6S(b1-3)GlcNAc6S
Outline: as §1

Fuc(a1-2)Gal6S(b1-4)Glc = target: Fuc(a1-2)Gal6S(b1-4)Glc
Outline: as §1

[18] = target: Fuc(a1-2)Gal6S(b1-4)Glc6S
Outline: as §1

Fuc(a1-2)[Gal(a1-3)]Gal = target: Fuc(a1-2)[Gal(a1-3)]Gal
Outline: as §1

[19] = target: Fuc(a1-2)[Gal(a1-3)]Gal(b1-3)GalNAc
Outline: as §1

[20] = target: Fuc(a1-2)[Gal(a1-3)]Gal(b1-3)GalNAc(b1-3)Gal(a1-4)Gal(b1-4)Glc
Outline: as §1

[21] = target: Fuc(a1-2)[Gal(a1-3)]Gal(b1-3)GlcNAc
Outline: as §1

[22] = target: Fuc(a1-2)[Gal(a1-3)]Gal(b1-3)GlcNAc(b1-2)Man(a1-3)[Fuc(a1-2)[Gal(a1-3)]Gal(b1-3)GlcNAc(b1-2)Man(a1-6)]Man(b1-4)GlcNAc(b1-4)GlcNAc
Outline: as §1

[23] = target: Fuc(a1-2)[Gal(a1-3)]Gal(b1-3)GlcNAc(b1-2)Man(a1-3)[Fuc(a1-2)[Gal(a1-3)]Gal(b1-3)GlcNAc(b1-2)Man(a1-6)]Man(b1-4)GlcNAc(b1-4)[Fuc(a1-6)]GlcNAc
Outline: as §1

[24] = target: Fuc(a1-2)[Gal(a1-3)]Gal(b1-3)GlcNAc(b1-3)GalNAc
Outline: as §1

[25] = target: Fuc(a1-2)[Gal(a1-3)]Gal(b1-3)GlcNAc(b1-6)GalNAc
Outline: as §1

[26] = target: Fuc(a1-2)[Gal(a1-3)]Gal(b1-4)Glc
Outline: as §1

[27] = target: Fuc(a1-2)[Gal(a1-3)]Gal(b1-4)GlcNAc
Outline: as §1

[28] = target: Fuc(a1-2)[Gal(a1-3)]Gal(b1-4)GlcNAc(b1-2)Man
Outline: as §1

[29] = target: Fuc(a1-2)[Gal(a1-3)]Gal(b1-4)GlcNAc(b1-2)Man(a1-3)[Fuc(a1-2)[Gal(a1-3)]Gal(b1-4)GlcNAc(b1-2)Man(a1-6)]Man(b1-4)GlcNAc(b1-4)GlcNAc
Outline: as §1

[30] = target: Fuc(a1-2)[Gal(a1-3)]Gal(b1-4)GlcNAc(b1-2)Man(a1-3)[Fuc(a1-2)[Gal(a1-3)]Gal(b1-4)GlcNAc(b1-2)Man(a1-6)]Man(b1-4)GlcNAc(b1-4)[Fuc(a1-6)]GlcNAc
Outline: as §1

[31] = target: Fuc(a1-2)[Gal(a1-3)]Gal(b1-4)GlcNAc(b1-3)GalNAc
Outline: as §1

[32] = target: Fuc(a1-2)[Gal(a1-3)]Gal(b1-4)GlcNAc(b1-3)[Fuc(a1-2)[Gal(a1-3)]Gal(b1-4)GlcNAc(b1-6)]GalNAc
Outline: as §1

[33] = target: Fuc(a1-2)[Gal(a1-3)]Gal(b1-4)GlcNAc(b1-6)GalNAc
Outline: as §1

[34] = target: Fuc(a1-2)[Gal(a1-3)]Gal(b1-4)[Fuc(a1-3)]Glc
Outline: as §1

[35] = target: Fuc(a1-2)[Gal(a1-3)]Gal(b1-4)[Fuc(a1-3)]GlcNAc
Outline: as §1

B1: LlpA (Arthrobacter sp) (protein)
chain: MGSSHHHHHHSSGLVPRGSHMTLHPETALRPGAAATSPNSRYRLLYQTDGNLVLYGPDGPLWDSGTNGHGAGACIMQADGNLVLYGPNDEYVWDTETDNNPGSRLVIQDDGNAVIYRPDGSPLWATETCQPPGSADSHVLQSGSTLTPTHGIRSANGLYGLLYQTDGNLVFYGPDGPLWDSGTNGRGAGACIMQPDGNLVLYGPHDEYVWDTETDNNPGSRLVIQDDGNAVIYRPDGNPTWVTGTH
glycan array binding signal (z-score) [1]: 1
glycan array binding signal (z-score) [2]: 0.386
glycan array binding signal (z-score) [3]: 0.063
glycan array binding signal (z-score) [4]: 0.363
glycan array binding signal (z-score) [5]: 0.676
glycan array binding signal (z-score) [6]: 1.55
glycan array binding signal (z-score) [7]: -1.22
glycan array binding signal (z-score) [8]: -0.304
glycan array binding signal (z-score) [9]: 1.97
glycan array binding signal (z-score) [10]: 1.33
glycan array binding signal (z-score) [11]: -0.312
glycan array binding signal (z-score) [12]: -0.294
glycan array binding signal (z-score) [13]: -1.05
glycan array binding signal (z-score) [14]: -0.133
glycan array binding signal (z-score) [15]: -0.507
glycan array binding signal (z-score) [16]: -1.38
glycan array binding signal (z-score) [17]: 0.436
glycan array binding signal (z-score) (Fuc(a1-2)Gal6S(b1-4)Glc): 0.733
glycan array binding signal (z-score) [18]: 0.173
glycan array binding signal (z-score) (Fuc(a1-2)[Gal(a1-3)]Gal): 0.136
glycan array binding signal (z-score) [19]: 0.157
glycan array binding signal (z-score) [20]: -0.344
glycan array binding signal (z-score) [21]: -0.821
glycan array binding signal (z-score) [22]: 0.506
glycan array binding signal (z-score) [23]: -0.848
glycan array binding signal (z-score) [24]: -0.382
glycan array binding signal (z-score) [25]: -0.929
glycan array binding signal (z-score) [26]: -0.248
glycan array binding signal (z-score) [27]: -0.094
glycan array binding signal (z-score) [28]: -0.686
glycan array binding signal (z-score) [29]: -0.516
glycan array binding signal (z-score) [30]: -0.739
glycan array binding signal (z-score) [31]: -0.279
glycan array binding signal (z-score) [32]: 0.533
glycan array binding signal (z-score) [33]: -0.726
glycan array binding signal (z-score) [34]: -1.15
glycan array binding signal (z-score) [35]: 0.864
